From article PMC11464796
Results are given in words; binding and its absence hold for the method and conditions named. Binding seen in cells or lysates may run through a third protein. These calls come from enrichment with a bait or labelling near it, and not all partners need be listed. No binding means not detected with the bait. Tags and fused reporters may be left off the sequences shown.

The chains behind the UniProt entries cited, without tags or fusion partners. Where a name states a change or a piece, a line headed by the entry shows the natural chain unless it says otherwise.
UniProt A0QVZ5: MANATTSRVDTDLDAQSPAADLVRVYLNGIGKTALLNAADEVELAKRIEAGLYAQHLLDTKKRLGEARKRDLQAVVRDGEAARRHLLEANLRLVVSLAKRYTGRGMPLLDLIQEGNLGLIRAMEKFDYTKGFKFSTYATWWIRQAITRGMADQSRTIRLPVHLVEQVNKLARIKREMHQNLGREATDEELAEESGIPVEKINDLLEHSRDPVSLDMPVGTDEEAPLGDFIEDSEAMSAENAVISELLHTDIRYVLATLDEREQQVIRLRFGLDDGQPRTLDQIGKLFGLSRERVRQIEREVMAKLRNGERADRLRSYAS
UniProt A0QW02: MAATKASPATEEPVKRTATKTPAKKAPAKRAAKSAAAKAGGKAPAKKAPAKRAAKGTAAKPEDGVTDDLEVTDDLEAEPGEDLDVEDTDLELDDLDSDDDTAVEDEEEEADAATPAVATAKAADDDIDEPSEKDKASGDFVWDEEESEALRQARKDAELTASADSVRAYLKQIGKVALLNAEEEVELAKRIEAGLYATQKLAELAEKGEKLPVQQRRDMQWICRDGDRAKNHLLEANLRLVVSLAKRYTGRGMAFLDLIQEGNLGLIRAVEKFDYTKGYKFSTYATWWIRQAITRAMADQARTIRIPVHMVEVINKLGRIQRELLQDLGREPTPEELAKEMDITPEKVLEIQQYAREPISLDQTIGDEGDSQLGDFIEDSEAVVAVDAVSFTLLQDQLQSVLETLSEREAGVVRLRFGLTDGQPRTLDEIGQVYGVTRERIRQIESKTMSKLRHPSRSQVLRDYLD
UniProt A0QZ11: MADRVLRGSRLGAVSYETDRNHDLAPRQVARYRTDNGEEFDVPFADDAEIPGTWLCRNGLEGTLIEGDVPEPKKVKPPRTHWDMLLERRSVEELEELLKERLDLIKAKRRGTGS
UniProt A0R561: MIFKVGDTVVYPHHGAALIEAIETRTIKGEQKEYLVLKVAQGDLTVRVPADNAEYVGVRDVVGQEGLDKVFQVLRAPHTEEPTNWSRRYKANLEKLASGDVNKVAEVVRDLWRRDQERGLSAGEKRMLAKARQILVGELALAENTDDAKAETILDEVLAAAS

Target: T1, Msm HelD-FLAG (Mycobacterium smegmatis) (UniProt A0QUE0)
T1 sequence: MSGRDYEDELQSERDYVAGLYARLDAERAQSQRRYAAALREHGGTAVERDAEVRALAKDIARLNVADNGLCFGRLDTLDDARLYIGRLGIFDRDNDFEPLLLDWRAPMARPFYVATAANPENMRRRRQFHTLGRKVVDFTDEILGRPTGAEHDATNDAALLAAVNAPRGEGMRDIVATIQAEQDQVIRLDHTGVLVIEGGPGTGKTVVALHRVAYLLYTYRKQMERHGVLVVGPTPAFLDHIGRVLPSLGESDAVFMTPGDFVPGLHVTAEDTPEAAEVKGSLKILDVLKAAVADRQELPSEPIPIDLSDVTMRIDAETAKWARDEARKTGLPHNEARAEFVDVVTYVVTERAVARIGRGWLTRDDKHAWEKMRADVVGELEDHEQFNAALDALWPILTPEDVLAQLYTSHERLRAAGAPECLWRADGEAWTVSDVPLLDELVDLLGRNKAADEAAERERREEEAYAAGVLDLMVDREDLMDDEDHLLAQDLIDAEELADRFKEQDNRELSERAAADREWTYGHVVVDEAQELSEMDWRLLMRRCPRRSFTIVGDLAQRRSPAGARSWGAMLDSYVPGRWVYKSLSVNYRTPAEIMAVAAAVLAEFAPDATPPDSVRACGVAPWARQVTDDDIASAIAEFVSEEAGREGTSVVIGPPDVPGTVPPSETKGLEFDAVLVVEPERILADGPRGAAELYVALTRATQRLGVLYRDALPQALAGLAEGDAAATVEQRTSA
Experiment: affinity purification with mass spectrometry; HelD-FLAG captured from M. smegmatis lysate (exponential and stationary phase) on anti-FLAG M2 agarose, 14 h, benzonase-treated and untreated lysates, eluted with 3xFLAG peptide; No-Tag strain as control; SDS-PAGE and LC-MS/MS

| binding | Substance |
| --- | --- |
| binds | Msm σ^B (endogenous) (from UniProt A0QVZ5 1-319) |
| binds | Msm σ^A (endogenous) (from UniProt A0QW02) |
| binds | Msm RbpA (endogenous) (from UniProt A0QZ11 1-114) |
| no binding | Msm CarD (endogenous) (from UniProt A0R561 1-162) |
